Article PMC5129563
Residue numbers refer to the chain shown, from its start. Results are given in words; binding and its absence hold for the method and conditions named. In cells and extracts the contact can be indirect. For part of these data: A result given as binding can be weak or reduced; the word gives no strength.

Columns and labels:
[1] = target: T1, ɛ‐sarcoglycan (mouse, endogenous; all isoforms caught by the pan anti‐ɛ‐sarcoglycan antibody) (mouse (endogenous in brain and lung)) (UniProt O70258); experiment: co-IP; immunoaffinity purification with the pan anti‐ɛ‐sarcoglycan antibody from mouse brain and lung solubilized in 1% digitonin, Western blot
T1 sequence: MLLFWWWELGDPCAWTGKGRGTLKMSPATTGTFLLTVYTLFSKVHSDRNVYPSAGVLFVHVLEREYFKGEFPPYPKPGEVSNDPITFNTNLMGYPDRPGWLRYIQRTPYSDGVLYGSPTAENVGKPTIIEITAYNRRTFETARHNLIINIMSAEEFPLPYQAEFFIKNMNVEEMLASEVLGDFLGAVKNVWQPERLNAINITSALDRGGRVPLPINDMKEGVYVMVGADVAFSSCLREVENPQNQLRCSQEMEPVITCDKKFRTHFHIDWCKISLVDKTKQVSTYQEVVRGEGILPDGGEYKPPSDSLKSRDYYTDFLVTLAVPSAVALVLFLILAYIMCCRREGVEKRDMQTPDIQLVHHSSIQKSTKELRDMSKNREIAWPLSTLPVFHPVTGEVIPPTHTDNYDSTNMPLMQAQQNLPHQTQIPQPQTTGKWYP

[2] = target: T1, ɛ‐sarcoglycan (mouse, endogenous; all isoforms caught by the pan anti‐ɛ‐sarcoglycan antibody) (mouse (endogenous in brain and lung)); experiment: co-IP; immunoaffinity purification with the pan anti‐ɛ‐sarcoglycan antibody from mouse brain and lung solubilized in RIPA buffer, Western blot
[3] = target: T2, ɛ‐sarcoglycan (rat, endogenous; all isoforms caught by the pan antibody esg‐4990) (rat (endogenous in brain and heart)) (UniProt Q6YAT4); experiment: co-IP; immunoaffinity purification with esg‐4990 beads from RIPA extracts of rat brain and heart, Western blot of the eluate
T2 sequence: T1 sequence with N216K, H265Q, H267Y, D350N, V397I, T401M, A416T, Q418P, P429Q

Row | binding [1] | binding [3] | Substance | binding [2]
1 | binds | – | dystrophin Dp71 (mouse, endogenous) | no binding (only tissue extracted in RIPA buffer)
2 | – | binds | β‐sarcoglycan (rat, endogenous) | –
